# According to PubChem BioAssay (NCATS):
# Amino acid sequences for entries named in this document (tags omitted). A change or cut given only in a name is not applied to a line headed by its entry.
# UniProt P50135: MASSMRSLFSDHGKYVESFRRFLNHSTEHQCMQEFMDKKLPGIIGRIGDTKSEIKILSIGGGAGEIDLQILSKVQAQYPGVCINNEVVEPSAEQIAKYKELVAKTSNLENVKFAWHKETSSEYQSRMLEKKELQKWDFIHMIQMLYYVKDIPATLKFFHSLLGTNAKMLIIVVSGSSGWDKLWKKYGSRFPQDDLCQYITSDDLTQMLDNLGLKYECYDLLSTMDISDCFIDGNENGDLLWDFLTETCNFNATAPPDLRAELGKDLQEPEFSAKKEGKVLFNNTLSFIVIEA
# The other results are listed elsewhere or left out. The main result of the screen is listed elsewhere. These columns were measured beside it and carry no call. For some of these results: The list favours compounds with an active or inconclusive main result. The note in brackets gives the kind of curve behind each potency; many fits are weak.
# How the values were obtained:
# [1] = Validation of Assay for Modulators of Lamin A Splicing (AID 1459); details: Lamin A splicing dual RFP/GFP fluorescence reporter, ratio
# Summary of the method: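 Dual-reporter HeLa S3 line (lamin A-EGFP minigene, DsRed2) treated with compounds 48 hrs, 0.5% DMSO final. Endpoint: EGFP/DsRed2 total intensity ratio from laser-scanning microplate cytometry.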
# [2] = qHTS Assay for Lipid Storage Modulators (AID 1519); details: Drosophila S3 cells, BODIPY lipid droplet/cell ratio, laser cytometry, cells loaded with oleic acid
# Summary of the method: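 Cells seeded at 5,000 per well were treated with compounds over a concentration series and loaded with oleic acid (400 uM, as added). Lipid droplet fluorescence (488 nm excitation, 500-530 nm channel) was read by laser-scanning cytometry and normalized to 20 uM Triacsin C.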
# [3] = qHTS Assay for Modulators of Human Peripheral Myelin Protein 22 (PMP22) Expression/Activity (AID 1967); details: Cell-based PMP22 reporter, dual-color luciferase ratio
# Summary of the method: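 Engineered MSC80 cells, Pmp22-promoter green and EF-alpha red luciferase reporters; 24h compound treatment at 37 °C. Concentration-response fits on green, red and ratio signals, each overlap-corrected, with %Activity normalized to untreated wells.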
# [4] = qHTS Validation Assay to Find Inhibitors of Chronic Active B-Cell Receptor Signaling (AID 485345); details: ABC-DLBCL cells, chronic BCR signaling reporter
# Summary of the method: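 TMD8 ABC-DLBCL cells stably carrying doxycycline-inducible IkappaBalpha–green luciferase fusion plus unfused red luciferase; compounds 46 uM to 3 nM, 4 h at 37C with doxycycline. Corrected green/red luminescence ratio normalized to 10 uM MG-132 and basal cell wells; curves fitted.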
# [5] = A High-Content qHTS Against Drug Library for the Identification of Small Molecules that Inhibit DYT1 Early Onset Primary Dystonia-Associated Cell Pathology (AID 1645839); details: HEK293 Flp-In EGFP-delE TorsinA, punctate imaging, 48 h; measured here: cell count cytotoxicity
# Summary of the method: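 Cells were seeded and left for 24 h, then dosed with compound alongside tetracycline induction of mutant EGFP-TorsinA. They were incubated for 48 h, fixed in 4% paraformaldehyde, permeabilized and imaged for mislocalization (%pathology) and cell count.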
# [6] = Nrf2 qHTS screen for inhibitors: Validation (AID 493153); details: A549 ARE-Fluc reporter, 18-24 h; AC50: CellTiter-Fluor fluorescence read, measured here: cytotoxicity CellTiter-Fluor AC50; viability change: measured here: cytotoxicity max response
# Summary of the method: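 A549 ARE_Fluc, 5% FBS OPTI-MEM; cpd titration, 18-24 h, 37°C/5% CO2. Read 1: CellTiter-Fluor (Ex 405/Em 525), cytotox. Read 2: luciferase lum, Nrf2 activity.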
# [7] = S16 Schwann cell PMP22 intronic element beta-lactamase assay (AID 624044); details: S16 rat Schwann cells, PMP22 element beta-lactamase FRET, 24 h
# Summary of the method: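 Beta-lactamase reporter under a PMP22 intronic regulatory element in stable S16 rat Schwann cells; 24 h compound exposure. 460 nm blue signal normalized between DMSO (0%) and potassium clavulanate, with 535 nm FRET tracking viability; curves classed by r2 and response.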
# [8] = qHTS drug screen for cell cycle checkpoint inhibitors in PARPi-resistant BRCA-mutant ovarian cancer cell lines. (AID 1963452); details: PEO1/OlaR viability, CellTiter-Glo luminescence, 96 h
# Summary of the method: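 PEO1, PEO4 and PEO1/OlaR ovarian cancer cells, 600 per well, exposed 96 h at 37C to a dilution series. Viability read by CellTiter-Glo luminescence, normalized to DMSO and empty wells; activity summarized as Z-AUC.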
# [9] = qHTS for identification of novel therapeutic agents for treatment of microphthalmiaassociated transcription factor (MiT) renal cell carcinoma (RCC) (AID 1963991); details: CellTiter-Glo, 48 h; for z-score: stronger effect = lower value
# Summary of the method: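 Three TFE3-fusion RCC cell lines (UOK109, UOK124, UOK145), 500 cells/well, were exposed to the 1912-compound MIPE 4.0 library for 48 hours at 37 C. Viability was read by CellTiter-Glo luminescence, normalised to DMSO (100%) and empty wells (0%), with 11-concentration curve fits.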
# [10] = target: Histamine N-methyltransferase (Homo sapiens) (UniProt P50135); assay: Confirmatory Screen for Target Class Profiling of Small Molecule Inhibitors of Methyltransferases (AID 1745852); details: MTase-Glo luminescence, SAH detection, recombinant enzyme; measured here: HNMT inhibition potency
# [11] = measured here: cell count channel max response
# [12] = measured here: lipid channel max response
# [13] = measured here: green reporter channel AC50, mouse Pmp22 promoter in mouse Schwann cells
# [14] = measured here: red reporter channel AC50, EF-alpha promoter control reporter in MSC80 mouse Schwann cells
# [15] = measured here: CBG/CBR ratio read-out
# [16] = measured here: CBR control luciferase (viability counter)
# [17] = measured here: PEO1 parental viability
structure (smiles),measurement,setting,value
OCCN1CCN(CCCN2c3ccccc3Sc3ccc(Cl)cc32)CC1,AC50,[1]; measured here: GFP channel,"22.4 µM [falling, single point]"
same,AC50,[1]; measured here: RFP channel,"17.8 µM [falling, partial curve]"
same,max response,[2]; [11],29.3%
same,max response,[2]; [12],31.8%
same,AC50,[3]; [13],"47.8 µM [falling, partial curve]"
same,AC50,[3]; [14],"47.8 µM [falling, partial curve, poor fit]"
same,AC50,[4]; [15],"16.4 µM [falling, single point]"
same,AC50,[4]; [16],"18.4 µM [falling, single point]"
same,AC50,[5],"0.355 µM [falling, full curve, poor fit]"
COc1cc(NS(C)(=O)=O)ccc1Nc1c2ccccc2nc2ccccc12,AC50,[1]; measured here: GFP channel,"0.794 µM [falling, full curve]"
same,AC50,[1]; measured here: RFP channel,"0.794 µM [falling, full curve]"
same,AC50,[3]; [13],"26.9 µM [falling, partial curve]"
same,AC50,[3]; [14],"0.0849 µM [falling, full curve]"
same,AC50,[6],"11.6 µM [falling, partial curve]"
same,viability change,[6],-60.6%
same,AC50,[7]; measured here: 460 nm blue channel,"0.251 µM [falling, full curve]"
same,AC50,[7]; measured here: 530 nm viability channel,"8.91 µM [rising, partial curve]"
same,AC50,[8]; [17],"0.174 µM [falling, full curve]"
same,AC50,[8]; measured here: PEO4 viability,"2.45 µM [falling, partial curve]"
CN(C)S(=O)(=O)c1ccc2c(c1)/C(=C/c1cc3c([nH]1)CCCC3)C(=O)N2,AC50,[1]; measured here: GFP channel,"14.1 µM [rising, single point]"
same,AC50,[1]; measured here: RFP channel,"14.1 µM [rising, single point]"
same,AC50,[2]; measured here: lipid (BODIPY) channel AC50,"20 µM [falling, full curve, poor fit]"
same,AC50,[3]; [14],"16.9 µM [falling, full curve, poor fit]"
same,AC50,[4]; [15],"20.6 µM [falling, partial curve]"
same,AC50,[4]; [16],"2.91 µM [falling, full curve]"
same,AC50,[6],"2.91 µM [falling, partial curve, poor fit]"
same,viability change,[6],-22.5%
same,AC50,[8]; measured here: PEO4 viability,"13.8 µM [falling, partial curve, poor fit]"
NC(=O)CNCCC(c1ccccc1)c1ccccc1,AC50,[1]; measured here: GFP channel,"5.01 µM [falling, single point]"
same,AC50,[1]; measured here: RFP channel,"5.01 µM [falling, single point]"
same,AC50,[3]; [14],"95.3 µM [falling, single point]"
O=C(O)CCCC[C@@H]1CCSS1,AC50,[1]; measured here: GFP channel,"35.5 µM [falling, single point]"
same,AC50,[1]; measured here: RFP channel,"35.5 µM [falling, single point]"
same,AC50,[3]; [14],"33.8 µM [rising, single point]"
O=S(=O)(c1cccc2c(I)cccc12)N1CCCNCC1,AC50,[1]; measured here: GFP channel,"35.5 µM [falling, single point]"
same,AC50,[1]; measured here: RFP channel,"35.5 µM [falling, single point]"
same,AC50,[4]; [15],"18.4 µM [falling, single point]"
same,AC50,[4]; [16],"9.2 µM [falling, partial curve, poor fit]"
same,AC50,[8]; measured here: PEO4 viability,"0.138 µM [falling, full curve, poor fit]"
CC1(C)CCC2=C(O1)c1ccccc1C(=O)C2=O,AC50,[1]; measured here: GFP channel,"25.1 µM [falling, partial curve]"
same,AC50,[1]; measured here: RFP channel,"25.1 µM [falling, partial curve]"
same,max response,[2]; [11],1.23%
same,max response,[2]; [12],-64.3%
same,AC50,[3]; [13],"30.1 µM [falling, full curve]"
same,AC50,[3]; [14],"37.9 µM [falling, full curve]"
same,AC50,[4]; [15],"14.6 µM [falling, partial curve]"
same,AC50,[4]; [16],"29.1 µM [falling, single point]"
same,AC50,[6],"29.1 µM [falling, partial curve, poor fit]"
same,viability change,[6],-27.1%
same,AC50,[8]; [17],"19.5 µM [falling, single point]"
same,AC50,[8]; measured here: PEO4 viability,"15.5 µM [falling, single point]"
same,z-score,"[9]; TFE3-RCC UOK109 viability, measured here: UOK109 Z-AUC",0.304
same,z-score,"[9]; TFE3-RCC viability, measured here: UOK124 Z-AUC",0.865
same,AC50,"[9]; TFE3-RCC viability, measured here: UOK124 cell viability","26.4 µM [falling, partial curve]"
same,z-score,"[9]; TFE3-RCC viability, measured here: UOK145 Z-AUC",1.2
same,AC50,"[9]; TFE3-RCC viability, measured here: UOK145 cell viability","37.2 µM [falling, single point]"
C[N+]1(CCCCC[N+]2(C)CCCC2)CCCC1,AC50,[1]; measured here: GFP channel,"35.5 µM [falling, single point]"
same,AC50,[1]; measured here: RFP channel,"35.5 µM [falling, single point]"
same,AC50,[3]; [14],"16.9 µM [rising, single point]"
Fc1ccc(CN(C2=NCCN2)c2c(Cl)cccc2Cl)cc1,AC50,[1]; measured here: GFP channel,"28.2 µM [falling, single point]"
same,AC50,[1]; measured here: RFP channel,"20 µM [falling, partial curve]"
same,max response,[2]; [11],46.3%
same,max response,[2]; [12],43.3%
same,AC50,[3]; [13],"75.7 µM [falling, partial curve]"
same,AC50,[3]; [14],"95.3 µM [falling, single point]"
same,IC50,[10],"24.3 µM [falling, partial curve]"
O=C1O/C(=C/Br)CCC1c1cccc2ccccc12 (stereo not drawn),AC50,[1]; measured here: GFP channel,"3.55 µM [falling, full curve]"
same,AC50,[1]; measured here: RFP channel,"4.47 µM [falling, full curve]"
same,max response,[2]; [11],33%
same,max response,[2]; [12],13%
same,AC50,[4]; [15],"10.3 µM [falling, partial curve]"
same,AC50,[4]; [16],"18.4 µM [falling, single point]"
same,viability change,[6],-14.1%

# 5 entries drawn at random from those above:
structure (smiles),measurement,setting,value
COc1cc(NS(C)(=O)=O)ccc1Nc1c2ccccc2nc2ccccc12,AC50,[3]; [14],"0.0849 µM [falling, full curve]"
O=C1O/C(=C/Br)CCC1c1cccc2ccccc12 (stereo not drawn),viability change,[6],-14.1%
CN(C)S(=O)(=O)c1ccc2c(c1)/C(=C/c1cc3c([nH]1)CCCC3)C(=O)N2,AC50,[2]; measured here: lipid (BODIPY) channel AC50,"20 µM [falling, full curve, poor fit]"
CC1(C)CCC2=C(O1)c1ccccc1C(=O)C2=O,AC50,[1]; measured here: GFP channel,"25.1 µM [falling, partial curve]"
COc1cc(NS(C)(=O)=O)ccc1Nc1c2ccccc2nc2ccccc12,AC50,[6],"11.6 µM [falling, partial curve]"
